Reference: PubChem BioAssay AID1508588 (Peter MacCallum Cancer Centre, 2020)
In all, the deposit lists about 18,000 reagents; shown is a random part of them. 790 of all reagents (4.4%) were called active. 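Calls rest on a combination of fold-change classes in drug and vehicle arms, not all shown here.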 A number with no mark means an inactive call.

Assay: 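Genome-wide search for knock-downs that heighten vemurafenib action in melanoma cells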 (primary screen)
System: human WM266.4 melanoma cells (BRAF V600 mutant)
Reagent: siRNA pool against human genes, 40 nM
Duration: 96 h from transfection to read-out
Challenge: vemurafenib 300 nM (about IC25), added 48 h after transfection, for 48 h; comparison arm got DMSO vehicle only
Measured: 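Cell gain (DAPI nuclei at end minus before drug, mean of two replicates) and medium lactate by absorbance per cell, both as ratio to non-targeting siRNA, also grouped into fold-change classes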
Scale: cell gain with vemurafenib: higher = more cell gain than with non-targeting siRNA; lactate per cell with vemurafenib: higher = more lactate made per cell
Active means: 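a knock-down counts as enhancing when its fold-change classes with vehicle and with vemurafenib, taken together, show a stronger drug effect on cell gain or lactate per cell; exact class pairs not stated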
Calls: active = enhances vemurafenib effect; inactive = no enhancement seen

gene	cell gain with vemurafenib	lactate per cell with vemurafenib
ADH5 (GeneID 128)	0.31	1.91
OR2K2 (GeneID 26248)	0.68	0.43
SLC38A12 (GeneID 54868)	0.72	0.9
EXTL2 (GeneID 2135)	0.46	0.55
PASK (GeneID 23178)	0.46	1
DAZ4 (GeneID 57135)	0.36	0.97
OR13D1 (GeneID 286365)	1	0.48
MFAP4 (GeneID 4239)	0.78	1.44
DCAF5 (GeneID 8816)	0.91	0.81
MTOR (GeneID 2475)	0.47	0.45
COL18A1 (GeneID 80781)	0.53	0.5
SCHIP1 (GeneID 29970)	0.65 (active)	0.41
HNRNPK (GeneID 3190)	-0.03	2.94
RCOR1 (GeneID 23186)	0.94 (active)	0.18
TCL1B (GeneID 9623)	0.61	1.04
ZP2 (GeneID 7783)	0.53	1.87
DENND10 (GeneID 404636)	0.44	1.35
IGSF21 (GeneID 84966)	0.91	1
PIK3C2A (GeneID 5286)	0.02	2.21
BAHCC1 (GeneID 57597)	0.7	1.08
RFTN2 (GeneID 130132)	1.07	0.84
EPHB2 (GeneID 2048)	1.06	1.01
TNS3 (GeneID 64759)	0.73	1.11
PF4 (GeneID 5196)	0.23	0.78
PPME1 (GeneID 51400)	0.62	0.78
ZFX (GeneID 7543)	0.61	1
CD99 (GeneID 4267)	0.27	1.14
OR8K5 (GeneID 219453)	0.48	1.48
PCIF1 (GeneID 63935)	0.16 (active)	1.4
PDE6G (GeneID 5148)	0.55	0.92
RBMY1A1 (GeneID 5940)	0.91	1.58
DEFB106B (GeneID 503841)	0.63	1.18
ANKRD20A1 (GeneID 84210)	0.79	0.53
MFN2 (GeneID 9927)	0.56	0.92
SAXO6 (GeneID 56890)	0.91	0.7
PCDHB10 (GeneID 56126)	1.08	0.54
PTRH2 (GeneID 51651)	0.37	1.17
HMGN3 (GeneID 9324)	0.49	1.54
ENPP4 (GeneID 22875)	0.57	1.12
CHMP4A (GeneID 29082)	0.72	0.64
VWA5A (GeneID 4013)	-0.12	1.9
MATN4 (GeneID 8785)	0.03	1.95
CHMP7 (GeneID 91782)	0.69	0.82
ERBB2 (GeneID 2064)	1.06	0.88
MCF2 (GeneID 4168)	0.63	0.84
DIO3 (GeneID 1735)	0.72	0.7
RGS16 (GeneID 6004)	0.54	0.84
GIMAP6 (GeneID 474344)	0.92	0.6
TCP10L3 (GeneID 6953)	0.62	1.45
KHK (GeneID 3795)	0.04	1.46
HNF1A (GeneID 6927)	0.03	1.29
MIB1 (GeneID 57534)	0.3	1.42
PUM2 (GeneID 23369)	0.48	1.1
HYOU1 (GeneID 10525)	0.99	0.97
FBLN5 (GeneID 10516)	0.48	1.38
TXNRD1 (GeneID 7296)	0.43	0.73
SQLE (GeneID 6713)	1.05	0.64
FBXO8 (GeneID 26269)	0.88	1.18
MARCKS (GeneID 4082)	0.37	1.62
TUBB3 (GeneID 10381)	0.03	1.5
HEPN1 (GeneID 641654)	0.43	1.08
CDH5 (GeneID 1003)	0.77	0.96
RXFP3 (GeneID 51289)	0.83	0.86
NPLOC4 (GeneID 55666)	1.02	0.46
PPP4C (GeneID 5531)	0.72	0.78
HAX1 (GeneID 10456)	0.4	1.36
TCEAL3 (GeneID 85012)	0.74	1.21
CRYAB (GeneID 1410)	0.54	1.12
CEMIP (GeneID 57214)	1.2	0.73
FBXO44 (GeneID 93611)	0.31	0.95
CDIP1 (GeneID 29965)	0.6	0.62
ZBTB2 (GeneID 57621)	-0.02	2.04
FGF11 (GeneID 2256)	1.22	0.74
PDCD1LG2 (GeneID 80380)	0.34	2.06
MAPK8IP1 (GeneID 9479)	0.62	0.78
RNF14 (GeneID 9604)	0.73	0.96
EXO5 (GeneID 64789)	0.54	1.43
MYO6 (GeneID 4646)	0.99	0.51
STXBP3 (GeneID 6814)	0.32	0.66
CHD8 (GeneID 57680)	0.33 (active)	0.7
PLA2G15 (GeneID 23659)	0.87	0.82
AKIRIN1 (GeneID 79647)	0.36	2.23
GJC1 (GeneID 10052)	0.88	1.01
CAPS (GeneID 828)	0.36	1.43
PKM (GeneID 5315)	0.8	0.91
NTMT1 (GeneID 28989)	0.77	0.68
CHRNA7 (GeneID 1139)	0.55	1.65
GPR21 (GeneID 2844)	0.56	1.1
MYH9 (GeneID 4627)	0.66	1.8
KNG1 (GeneID 3827)	0.54	1.23
USPL1 (GeneID 10208)	0.17	1.21
SERPINE2 (GeneID 5270)	0	1.95
MCMBP (GeneID 79892)	0.72	0.64
AHSP (GeneID 51327)	0.11	0.76
ZNF331 (GeneID 55422)	0.26	2.19
ACTA2 (GeneID 59)	0.82	0.94
HOGA1 (GeneID 112817)	0.55	1.51
ZNF557 (GeneID 79230)	0.6	1.1
KRTAP22-1 (GeneID 337979)	0.73	0.66
C9orf40 (GeneID 55071)	0.45	1.76
ELMOD3 (GeneID 84173)	0.35	0.24
PLAAT4 (GeneID 5920)	0.68	1.42
INSL3 (GeneID 3640)	0.32	1.21
IHH (GeneID 3549)	1.18	0.77
TNIP3 (GeneID 79931)	0.48	0.27
NYX (GeneID 60506)	0.2	2.19
LAPTM5 (GeneID 7805)	0.65	1

Look-ups from the entries so far:
Under “cell gain with vemurafenib”, OR8K5 (GeneID 219453) shows 0.48
For “cell gain with vemurafenib”, VWA5A (GeneID 4013) reads -0.12
GIMAP6 (GeneID 474344), cell gain with vemurafenib → 0.92
Under “lactate per cell with vemurafenib”, MCF2 (GeneID 4168) shows 0.84
For “cell gain with vemurafenib”, TNS3 (GeneID 64759) is entered as 0.73
PASK (GeneID 23178), lactate per cell with vemurafenib → 1
